# Experimental data from PubChem BioAssay AID652183 (National Center for Advancing Translational Sciences (NCATS), 2013).
# The inconclusive results got no clear call from the source; some entries with a clear call stand among them for comparison. Where the call is inconclusive, the potency comes from a doubtful curve fit. Active and inactive are the calls of the source. Calls follow the shape of the dose curve; as a rule, active = well fitted inhibition curve with a large enough effect; inconclusive = small, poorly fitted or top-dose-only effect; inactive = no such curve, though single readings can be large or run the other way.
# Assay: qHTS Assay for Lipid Storage Modulators: Differentiation Assay against Probe and Analogs
# Details: 3T3-L1 adipocyte differentiation, BODIPY lipid imaging, 8 d; series mostly up to 20 µM
# Description: Storing lipids as a reservoir for energy or the anabolism of elementary metabolites is a common feature of probably all cells and is conserved from bacteria to humans. The universal cellular lipid storage organelle is the so-called lipid storage droplet (LD). Although ubiquitous, LDs share a simple structure composed of a hydrophobic core that harbors the storage lipids, which is shielded by a droplet-specific phospholipid monolayer to which proteins are attached. The current model of LD biogenesis involves an incorporation of the lipid core into the membrane leaflets of the endoplasmic reticulum (ER) followed by a subsequent budding-like maturation of a LD, which ultimately pinches off. Once released, LD volume can increase by localized lipogenesis or fusion of existing droplets. Storage lipids are re-mobilized enzymatically by lipase activity. Lipase regulation in the adipocyte is heavily studied and involves multiple components including catecholamine signaling, the LD-associated proteins Perilipin and comparative gene identification-58 (CGI-58) and at least two lipases named hormone sensitive lipase (HSL) and adipocyte triglyceride lipase (ATGL). LD regulation outside of the adipocyte is poorly understood and only few components are known. However, there is an urgent need to learn more about ectopic fat depots as mislocalized storage of lipids, for example in the liver or muscle, is an eminent health problem associated with insulin resistance or the metabolic syndrome. We developed a laser-scanning cytometer assay to enable 1,536-well screening and combined the results of the small molecules screen with an RNAi database based on lipid storage. […] NIH Chemical Genomics Center [NCGC] MLPCN Grant: MH085686 Assay Submitter (PI): Mathias Beller, Max-Planck-Institut fur Biophysikalische Chemie
# 3T3L1 cells were obtained from ATCC (CL-173). Pre-adipocyte medium (PM-1), differentiation medium (DM-2) and after adipocyte medium (AM-1) were purchased from Zen-Bio (# PM-1-L1, DM-2-L1, AM-1-L1). 200 uL of PM-1containing 3,000 cells was dispensed into each well of a 96-well plate (Corning, #3340), and the assay plates were incubated at 37 °C, 95% humidity and 5% CO2 for 3-5 days. The differentiation of pre-adipocyte to adipocyte was induced by removing the pre-adipocyte medium and replacing with 200 uL of differentiation medium. 1 uL of compounds at different concentrations dissolved in differentiation medium were added to the assay plates, along with medium exchange for differentiation to test their effects on adipocyte differentiation. The final DMSO concentration was 0.5%.Triacsin C (Sigma-Aldrich T-4540), an inhibitor of long-chain fatty acyl CoA synthetase that blocks synthesis of triglycerides, was used as a positive control for lipid under-storage. After 3 days, differentiation medium was replaced with adipocyte maintenance medium and assay plates were incubated for 5 days. Aspirated the medium, then Cells were fixed using 4% of paraformaldehyde in PBS for 30 minutes at room temperature, washed 3 times with PBS buffer. Finally, the cells were stained using 200 uL of PBS containing BODIPY lipid dye 493/530 (1:2000 dilution, Molecular Probes), Hoechst 33342 (1:1000 dilution, Life Technologies, #H3570) and CellMask deep red dye (1:10,000 dilution, Life Technologies, #H32721) with Washer dispenser EL406(Biotek). Images were acquired using InCell 2000 (GE), number of cells, number of lipids, size of lipids and cells were analysis using GE Investigator software.
row,Compound,Potency
1,CCOc1ccc(CCNC(=O)c2cc3cccnc3n2Cc2cccc(C)n2)cc1OCC,"inconclusive: 8.91 µM [inhibitor, partial curve]"
2,CCOc1ccc(CCNC(=O)c2cc3ncccc3n2Cc2cccc(C)n2)cc1OCC,"inconclusive: 2.82 µM [inhibitor, partial curve, poor fit]"
3,CCOc1ccc(CCNC(=O)c2cc3ccccc3n2Cc2ccccn2)cc1OCC,active: 12.6 µM
4,CCOc1ccc(CCNC(=O)c2cc3sccc3n2Cc2ccc(F)cc2F)cc1OCC,inactive
5,CCOC(=O)C1CCN(C(=O)C2(NC(=O)Nc3ccccc3Cl)CCCC2)CC1,inactive
6,CCOc1ccc(CCNC(=O)c2cc3ccccc3n2CCN2CCOCC2)cc1OCC,"inconclusive: 2.51 µM [inhibitor, full curve]"
7,CCOc1ccc(CCNC(=O)c2cc3ccccc3n2Cc2cccc(C)n2)cc1OCC,"inconclusive: 14.1 µM [inhibitor, partial curve, poor fit]"
8,CCOc1ccc(CCNC(=O)c2cc3sccc3n2CCN(C)C)cc1OCC,inactive

# 2 compounds drawn at random from the list so far, as already listed:
row,Compound,Potency
5,CCOC(=O)C1CCN(C(=O)C2(NC(=O)Nc3ccccc3Cl)CCCC2)CC1,inactive
7,CCOc1ccc(CCNC(=O)c2cc3ccccc3n2Cc2cccc(C)n2)cc1OCC,"inconclusive: 14.1 µM [inhibitor, partial curve, poor fit]"
